Test results published in PubChem BioAssay (NCATS).
This is one part of the list. These are further read-outs of the screen, such as a control signal, another cell line or another target. No call is given for them. The list favours compounds with an active or inconclusive main result. Words in brackets tell the shape of the fitted curve; partial curves, single points and poor fits give uncertain potencies.

assay: qHTS for identification of novel therapeutic agents for treatment of microphthalmiaassociated transcription factor (MiT) renal cell carcinoma (RCC) (AID 1963991); conditions: TFE3-RCC viability, CellTiter-Glo, 48 h; measured here: UOK145 cell viability
Summary of the method: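 Three TFE3-fusion RCC cell lines (UOK109, UOK124, UOK145), 500 cells/well, were exposed to the 1912-compound MIPE 4.0 library for 48 hours at 37 C. Viability was read by CellTiter-Glo luminescence, normalised to DMSO (100%) and empty wells (0%), with 11-concentration curve fits.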

Structure (SMILES)	AC50
CC(=O)c1c(C)c2cnc(Nc3ccc(N4CCNCC4)cn3)nc2n(C2CCCC2)c1=O	18.7 µM [falling, partial curve]
CC(C)=CCCC(C)=CCCC(C)=CCSc1ccccc1C(=O)O	11.8 µM [falling, partial curve]
CC1(O)CC(c2nc(-c3ccc4ccc(-c5ccccc5)nc4c3)c3c(N)nccn23)C1 (centres undefined)	23.5 µM [falling, single point]
CC(=O)N1CCN(c2ccc(OCc3nn(C)c(C)c3-c3cccc4c(CCCOc5cc(C)c(Cl)c(C)c5)c(C(=O)O)n(Cc5cccnc5)c34)cc2)CC1	23.5 µM [falling, single point]
CN(C)CCOc1ccc(-c2nc(-c3ccc4c(c3)CCC4=NO)c(-c3ccncc3)[nH]2)cc1	26.4 µM [falling, partial curve]
CC1CCN(c2cc(N3CCN(C)CC3)ccc2NC(=O)c2cc(C#N)c[nH]2)CC1	20.9 µM [falling, single point]
CC(C)c1c(C(=O)Nc2ccccc2)c(-c2ccccc2)c(-c2ccc(F)cc2)n1CC[C@H](O)C[C@@H](O)CC(=O)O	26.4 µM [falling, single point]
C=Cc1c(C)c2cc3nc(cc4[nH]c(cc5nc(cc1[nH]2)C(C)=C5CCC(=O)O)c(CCC(=O)OC)c4C)[C@@]1(C)C3=CC=C(C(=O)OC)[C@H]1C(=O)OC	1.18 µM [falling, full curve]
O=S(=O)(NCCNCC=Cc1ccc(Br)cc1)c1cccc2cnccc12	23.5 µM [falling, partial curve]
CNC(=O)c1cc(COc2nnc(Nc3ccc(Cl)cc3)c3ccoc23)ccn1	29.6 µM [falling, single point]
CC[C@H](Nc1ncnc2nc[nH]c12)c1nc2cccc(F)c2c(=O)n1-c1ccccc1	13.2 µM [falling, partial curve]
C[C@@]1(c2cc(-c3cncnc3)c(F)cc2F)CCSC(N)=N1	23.5 µM [falling, single point]
CCN(CC)CCCCNc1nc2cc(Cl)c(Cl)cc2nc1-c1ccc(-c2cccs2)s1	33.2 µM [falling, single point]
Nc1ccn([C@@H]2O[C@H](CO)[C@@H](O)[C@H]2O)c(=O)n1	0.0332 µM [falling, full curve]
COc1cc(C[C@@H](CO)[C@H](CO)Cc2ccc(O)c(OC)c2)ccc1O	3.72 µM [falling, full curve]
CN(C)CC=CC(=O)Nc1cc2c(Nc3ccc(F)c(Cl)c3)ncnc2cc1O[C@H]1CCOC1	5.9 µM [falling, partial curve]
CNC(=O)c1c(-c2ccc(F)cc2)oc2cc(N(CCO)S(C)(=O)=O)c(C3CC3)cc12	18.7 µM [falling, partial curve]
O=c1[nH]c(=O)n([C@H]2C[C@@H](O)[C@@H](CO)O2)cc1C(F)(F)F	10.5 µM [falling, partial curve]
CC(C)(N)C(=O)N[C@H](COCc1ccccc1)C(=O)N1CCC2(CC1)CN(S(C)(=O)=O)c1ccccc12	23.5 µM [falling, partial curve, poor fit]
N#CC(c1ccnc(NCCc2cccnc2)n1)c1nc2ccccc2s1 (centres undefined)	18.7 µM [falling, partial curve]

2 successive records out of the list so far, quoted:
Structure (SMILES)	AC50
CC1(O)CC(c2nc(-c3ccc4ccc(-c5ccccc5)nc4c3)c3c(N)nccn23)C1 (centres undefined)	23.5 µM [falling, single point]
CC(=O)N1CCN(c2ccc(OCc3nn(C)c(C)c3-c3cccc4c(CCCOc5cc(C)c(Cl)c(C)c5)c(C(=O)O)n(Cc5cccnc5)c34)cc2)CC1	23.5 µM [falling, single point]

Later entries.

Structure (SMILES)	AC50
COc1ccc(COc2cc3oc(=O)c4cc(C(C)O)ccc4c3cc2OC)cc1 (centres undefined)	23.5 µM [falling, single point]
O=C1NC(=O)C(=Cc2ccc(-c3ccc(F)cc3O)o2)S1	8.33 µM [falling, partial curve, poor fit]
CCOC(=O)N1CCN([N+]([O-])=NOc2cc(ON=[N+]([O-])N3CCN(C(=O)OCC)CC3)c([N+](=O)[O-])cc2[N+](=O)[O-])CC1	29.6 µM [falling, single point]
C[C@@H]1[C@H](O)[C@@H](C)C=CC=CC=CC=CC=CC=CC=C[C@H](O[C@@H]2O[C@H](C)[C@H](O)[C@H](N)[C@@H]2O)C[C@@H]2O[C@](O)(C[C@@H](O)C[C@@H](O)[C@H](O)CC[C@@H](O)C[C@@H](O)CC(=O)O[C@H]1C)C[C@H](O)[C@@H]2C(=O)O	1.18 µM [falling, full curve]
CN1CCCN(C(=O)c2cccc(-c3ccc(C=C4C(=O)Nc5ccc(Cl)cc54)o3)c2)CC1	23.5 µM [falling, partial curve]
CCOC(=O)N1CCN([N+]([O-])=NOc2ccc([N+](=O)[O-])cc2C#N)CC1	2.09 µM [falling, full curve]
CN(C)S(=O)(=O)c1ccc2c(c1)C(=Cc1cc3c([nH]1)CCCC3)C(=O)N2	18.7 µM [falling, partial curve, poor fit]
C[C@@H]1C[C@H]2[C@@H]3CCC4=CC(=O)C=C[C@]4(C)[C@@]3(Cl)[C@@H](O)C[C@]2(C)[C@@]1(OC(=O)c1ccco1)C(=O)CCl	2.96 µM [falling, full curve]
CC(C=CC=C(C)C=CC1=C(C)CCCC1(C)C)=CC=CC=C(C)C=CC=C(C)C=CC1=C(C)CCCC1(C)C	20.9 µM [falling, partial curve, poor fit]
Cn1cnc(=N)c2[nH]cnc21	5.9 µM [falling, partial curve]
CCn1c(-c2nonc2N)nc2c(C#CC(C)(C)O)ncc(OC[C@H]3CCCNC3)c21	26.4 µM [falling, single point]
O=C(C=Cc1cccc(S(=O)(=O)Nc2ccccc2)c1)NO	9.59 µM [falling, full curve]
CC(=O)ON=C1C(c2c(O)[nH]c3cc(Br)ccc23)=Nc2ccccc21	4.18 µM [falling, full curve]
CS(=O)(=O)Oc1ccc2c(NC(N)=O)c(C(=O)c3ccc(Cl)cc3Cl)oc2c1	16.6 µM [falling, partial curve]
Nc1ncn([C@@H]2O[C@H](CO)[C@@H](O)[C@@H]2O)c(=O)n1	5.26 µM [falling, full curve]
CN(C)CC(C)(C)CNc1nn2c(-c3ccccc3)nnc2cc1C1CCC1	1.66 µM [falling, full curve]
COc1cc([C@@H]2c3cc4c(cc3[C@@H](O[C@@H]3O[C@@H]5CO[C@@H](c6cccs6)O[C@@H]5[C@H](O)[C@@H]3O)[C@H]3COC(=O)[C@H]23)OCO4)cc(OC)c1O	0.418 µM [falling, full curve]
C[C@]1(CO)CN(c2cc(C(=O)Nc3ccc4c(c3)-c3c(c(C(N)=O)nn3-c3ccc(F)cc3)CC4)c(Cl)cn2)C[C@@]1(C)CO	7.43 µM [falling, full curve]
O=C(O)c1ccc(-c2cc3cccnc3c(-c3ccc4nonc4c3)n2)cc1	23.5 µM [falling, single point]
